The values below are quoted from earlier work in US7396524B2, “Methods for screening compounds for proarrhythmic risk and antiarrhythmic efficacy” (Main Line Health Heart Center, priority 2005, dated 2008).

For this data set the following is noted: humans; cited from earlier work.

In the case of `CCCCc1oc2ccccc2c1C(=O)c1cc(I)c(OCCN(CC)CC)c(I)c1` [amiodarone], the QT prolongation result is “significantly prolongs the QT interval”.
